PubChem BioAssay AID652272, Drosophila RNAi Screening Center, 2013

- Assay: 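Genome-wide knock-down search for components of Hedgehog signalling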 (primary screen)
- Cells: Drosophila clone 8 (Cl8) cells
- Reagents: long dsRNA against Drosophila genes
- Measured: 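Plate reader light from a firefly reporter under a ptc promoter fragment that responds to Hedgehog, with Renilla light as transfection reference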
- Direction: firefly Hh reporter signal: higher = more ptc reporter light; Renilla reference signal: higher = more Renilla control light
- Rule for the call: 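Called a hit if the two-replicate mean z-score lies below -2 or above +3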
- Meaning of the calls: active = hit: reporter lowered or raised; inactive = not a hit
In all, the deposit lists about 21,000 reagents; shown is an unselected part of those that have a named target and a result. In the full data, 503 (2.4%) were called active. 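Raw plate light values, not normalised; calls rest on replicate z-scores that were not deposited; hits include reporter decreases as well as increases.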 Entries without a mark were called inactive. Names joined by + are all predicted targets of the reagent. The record does not give: the amount of reagent, the time to read-out.

gene | dsRNA | firefly Hh reporter signal, replicate 1 | firefly Hh reporter signal, replicate 2 | firefly Hh reporter signal, replicate 3 | Renilla reference signal, replicate 1 | Renilla reference signal, replicate 2
Rab9 | DRSC03281 | 99009 | 44800 | – | 2743 | 4384
CG7094 | DRSC03005 | 1.16e5 | 49427 | – | 2816 | 5140
CG1288 | DRSC12538 | 67837 | 90597 | – | 2738 | 2528
Or56a | DRSC07495 | 99672 | 63252 | – | 2967 | 4580
CG6996 | DRSC10758 | 1.05e5 | 1.37e5 | – | 2338 | 3989
pre-mod(mdg4)-W + pre-mod(mdg4)-Y + mod(mdg4) + 3 more | DRSC16328 | 5.03e5 | 2.23e5 | – | 20534 | 5686
CG15043 | DRSC19619 | 1.11e5 | 2.57e5 | – | 3523 | 11282
CdGAPr | DRSC03289 | 51853 | 67465 | – | 960 | 6057
CG15071 | DRSC06504 | 86055 | 57602 | – | 2300 | 4096
CG11068 | DRSC19369 | 56321 | 2.00e5 | – | 1750 | 7833
cos | DRSC07598 | 70519 (active) | 47995 | – | 4162 | 3376
eater | DRSC15969 | 1.47e5 | 7.95e5 | 1.64e5 | 3733 | 5011
Syt14 | DRSC12331 | 1.32e5 | 1.48e5 | – | 4498 | 8391
acs | DRSC08185 | 96999 | 30444 | – | 4148 | 3079
CG15478 | DRSC18057 | 1.08e5 | 4.24e5 | – | 1588 | 16464
CG8701 | DRSC07237 | 84792 | 50556 | – | 3448 | 2156
miple2 | DRSC08723 | 1.19e5 | 37284 | – | 3714 | 2823
Strump | DRSC09872 | 1.28e5 | – | – | 6515 | 3686
Pgi | DRSC07507 | 78556 | 38032 | – | 2976 | 1780
CG5886 | DRSC15908 | 78359 | 88273 | – | 1377 | 2201
CG8568 | DRSC20113 | 78469 | 81404 | – | 1771 | 2080
Cisd2 | DRSC14904 | 98073 | 1.19e5 | – | 1933 | 2816
Den1 | DRSC07195 | 1.24e5 | 58042 | – | 2857 | 4389
lms | DRSC06387 | 73760 | 42883 | – | 2410 | 3264
CG9674 | DRSC11088 | 1.21e5 | 55955 | – | 4609 | 2471
CG9674 | DRSC11089 | 1.21e5 | – | – | 2329 | 3280
spri | DRSC17846 | 1.17e5 | 1.94e5 | – | 2176 | 6624
spri | DRSC17984 | 55479 | 2.18e5 | – | 1339 | 7874
spri | DRSC17985 | 1.15e5 | 3.28e5 | – | 4165 | 11536
spri | DRSC17986 | 1.05e5 | 2.43e5 | – | 2153 | 9736
spri | DRSC17988 | 62564 | 1.55e5 | – | 1936 | 8317
spri | DRSC17989 | 67112 | 2.11e5 | – | 2006 | 9139
Uch | DRSC00797 | 1.58e5 | 93175 | – | 5722 | 3626
CG14327 | DRSC14806 | 1.25e5 | 1.14e5 | – | 5172 | 1977
kdn | DRSC18328 | 57752 | 2.33e5 | – | 1084 | 8951
eIF3i | DRSC03464 | 55891 | 25648 | – | 2832 | 1463
Mhc | DRSC03367 | 91441 | 70875 | – | 2275 | 5955
Lint-1 | DRSC19822 | 1.51e5 | 86251 | – | 3411 | 2016
Naa15-16 | DRSC19440 | 5.79e5 | 7.47e5 | 98875 | 4226 | 4579
CG42656 | DRSC12472 | 2.53e5 | – | – | 5536 | –
CG12990 | DRSC19510 | 90404 | 2.39e5 | – | 3266 | 8131
CG10341 | DRSC02040 | 42005 | 33044 | – | 2170 | 1698
Ucp4B + asRNA:CR43465 | DRSC02665 | 1.02e5 | 76741 | – | 2395 | 6966
CG43277 | DRSC05800 | 1.38e5 | 2.84e5 | – | 3724 | 11509
Stam | DRSC03444 | 67845 | 50605 | – | 3130 | 2416
mof | DRSC18795 | 74492 (active) | 1.60e5 | – | 1946 | 3122
CG5435 | DRSC02860 | 1.21e5 | 53353 | – | 2811 | 4812
Srlp | DRSC15890 | 35462 | 78261 | – | 807 | 3590
Nazo | DRSC14343 | 61192 | 1.02e5 | – | 2570 | 3592
Sf3b6 | DRSC09972 | 46262 | 57008 | – | 6758 | 4474
CG17687 | DRSC10279 | 34024 | 38657 | 58252 | 4109 | 4401
CG8507 | DRSC16435 | 57691 | 1.07e5 | – | 2010 | 3020
S-Lap5 | DRSC06732 | 76924 | 69937 | – | 1901 | 5291
CG17159 + CG17162 | DRSC20899 | 50042 | 1.60e5 | – | 1056 | 6212
CG17159 + CG17162 | DRSC20900 | 74817 | 2.26e5 | – | 1592 | 9203
CG33914 | DRSC05033 | 1.31e5 | 1.74e5 | – | 3338 | 7197
CG33914 | DRSC05034 | 1.57e5 | 2.04e5 | – | 3965 | 9696

Limited to “Renilla reference signal, replicate 1” (4 entries from above):
mof [DRSC18795]	1946 (active)
CG5435 [DRSC02860]	2811
Srlp [DRSC15890]	807
Nazo [DRSC14343]	2570
